No constants are given. Whether binding was seen depends on the method and setting. Some binding calls cover weakened binding; strength is not graded here.
Target: adipose triglyceride lipase (ATGL) (mouse (endogenous in 3T3-L1 adipocytes and mouse WAT)) (UniProt Q8BJ56)
Test: SDS-PAGE band of a 4G8 immunoprecipitate with in-gel digestion and MS/MS; proteins precipitated with the 4G8 antibody, separated on SDS gel; 55 kDa and 150 kDa bands cut out, digested with trypsin and analysed by LC-MS/MS

binding: binds
B1: adipose triglyceride lipase (ATGL) (protein, UniProt Q8BJ56 1-486)
chain: MFPRETKWNISFAGCGFLGVYHIGVASCLREHAPFLVANATHIYGASAGALTATALVTGACLGEAGANIIEVSKEARKRFLGPLHPSFNLVKTIRGCLLKTLPADCHERANGRLGISLTRVSDGENVIISHFSSKDELIQANVCSTFIPVYCGLIPPTLQGVRYVDGGISDNLPLYELKNTITVSPFSGESDICPQDSSTNIHELRVTNTSIQFNLRNLYRLSKALFPPEPMVLREMCKQGYRDGLRFLRRNGLLNQPNPLLALPPVVPQEEDAEEAAVVEERAGEEDQLQPYRKDRILEHLPARLNEALLEACVEPKDLMTTLSNMLPVRLATAMMVPYTLPLESAVSFTIRLLEWLPDVPEDIRWMKEQTGSICQYLVMRAKRKLGDHLPSRLSEQVELRRAQSLPSVPLSCATYSEALPNWVRNNLSLGDALAKWEECQRQLLLGLFCTNVAFPPDALRMRAPASPTAADPATPQDPPGLPPC
